B1: SPAM1-IVSI: C-terminally truncated human PH20, precursor 498 aa (SEQ ID NO:49), mature 463 aa (SEQ ID NO:101) (protein, listed as Homo sapiens)
chain 1: MGVLKFKHIFFRSFVKSSGVSQIVFTFLLIPCCLTLNFRAPPVIPNVPFLWAWNAPSEFCLGKFDEPLDMSLFSFIGSPRINATGQGVTIFYVDRLGYYPYIDSITGVTVNGGIPQKISLQDHLDKAKKDITFYMPVDNLGMAVIDWEEWRPTWARNWKPKDVYKNRSIELVQQQNVQLSLTEATEKAKQEFEKAGKDFLVETIKLGKLLRPNHLWGYYLFPDCYNHHYKKPGYNGSCFNVEIKRNDDLSWLWNESTALYPSIYLNTQQSPVAATLYVRNRVREAIRVSKIPDAKSPLPVFAYTRIVFTDQVLKFLSQDELVYTFGETVALGASGIVIWGTLSIMRSMKSCLLLDNYMETILNPYIINVTLAAKMCSQVLCQEQGVCIRKNWNSSDYLHLNPDNFAIQLEKGGKFTVRGKPTLEDLEQFSEKFYCSCYSTLSCKEKADVKDTDAVDVCIADGVCIDAFLKPPMETEEPQIFYNASPSTLSATMFIVSI
chain 2: LNFRAPPVIPNVPFLWAWNAPSEFCLGKFDEPLDMSLFSFIGSPRINATGQGVTIFYVDRLGYYPYIDSITGVTVNGGIPQKISLQDHLDKAKKDITFYMPVDNLGMAVIDWEEWRPTWARNWKPKDVYKNRSIELVQQQNVQLSLTEATEKAKQEFEKAGKDFLVETIKLGKLLRPNHLWGYYLFPDCYNHHYKKPGYNGSCFNVEIKRNDDLSWLWNESTALYPSIYLNTQQSPVAATLYVRNRVREAIRVSKIPDAKSPLPVFAYTRIVFTDQVLKFLSQDELVYTFGETVALGASGIVIWGTLSIMRSMKSCLLLDNYMETILNPYIINVTLAAKMCSQVLCQEQGVCIRKNWNSSDYLHLNPDNFAIQLEKGGKFTVRGKPTLEDLEQFSEKFYCSCYSTLSCKEKADVKDTDAVDVCIADGVCIDAFLKPPMETEEPQIFYNASPSTLSATMFIVSI
modifications: HuPH20 precursor 1-498; Mature HuPH20 36-498
B2: SPAM1-ILFL: C-terminally truncated human PH20, precursor 501 aa (SEQ ID NO:6), mature 466 aa (SEQ ID NO:58) (protein, listed as Homo sapiens)
chain 1: MGVLKFKHIFFRSFVKSSGVSQIVFTFLLIPCCLTLNFRAPPVIPNVPFLWAWNAPSEFCLGKFDEPLDMSLFSFIGSPRINATGQGVTIFYVDRLGYYPYIDSITGVTVNGGIPQKISLQDHLDKAKKDITFYMPVDNLGMAVIDWEEWRPTWARNWKPKDVYKNRSIELVQQQNVQLSLTEATEKAKQEFEKAGKDFLVETIKLGKLLRPNHLWGYYLFPDCYNHHYKKPGYNGSCFNVEIKRNDDLSWLWNESTALYPSIYLNTQQSPVAATLYVRNRVREAIRVSKIPDAKSPLPVFAYTRIVFTDQVLKFLSQDELVYTFGETVALGASGIVIWGTLSIMRSMKSCLLLDNYMETILNPYIINVTLAAKMCSQVLCQEQGVCIRKNWNSSDYLHLNPDNFAIQLEKGGKFTVRGKPTLEDLEQFSEKFYCSCYSTLSCKEKADVKDTDAVDVCIADGVCIDAFLKPPMETEEPQIFYNASPSTLSATMFIVSILFL
chain 2: LNFRAPPVIPNVPFLWAWNAPSEFCLGKFDEPLDMSLFSFIGSPRINATGQGVTIFYVDRLGYYPYIDSITGVTVNGGIPQKISLQDHLDKAKKDITFYMPVDNLGMAVIDWEEWRPTWARNWKPKDVYKNRSIELVQQQNVQLSLTEATEKAKQEFEKAGKDFLVETIKLGKLLRPNHLWGYYLFPDCYNHHYKKPGYNGSCFNVEIKRNDDLSWLWNESTALYPSIYLNTQQSPVAATLYVRNRVREAIRVSKIPDAKSPLPVFAYTRIVFTDQVLKFLSQDELVYTFGETVALGASGIVIWGTLSIMRSMKSCLLLDNYMETILNPYIINVTLAAKMCSQVLCQEQGVCIRKNWNSSDYLHLNPDNFAIQLEKGGKFTVRGKPTLEDLEQFSEKFYCSCYSTLSCKEKADVKDTDAVDVCIADGVCIDAFLKPPMETEEPQIFYNASPSTLSATMFIVSILFL
modifications: HuPH20 precursor 1-501; mature HuPH20 36-501
B3: SPAM1-VSIL: C-terminally truncated human PH20, precursor 499 aa (SEQ ID NO:7), mature 464 aa (SEQ ID NO:59) (protein, listed as Homo sapiens)
chain: LNFRAPPVIPNVPFLWAWNAPSEFCLGKFDEPLDMSLFSFIGSPRINATGQGVTIFYVDRLGYYPYIDSITGVTVNGGIPQKISLQDHLDKAKKDITFYMPVDNLGMAVIDWEEWRPTWARNWKPKDVYKNRSIELVQQQNVQLSLTEATEKAKQEFEKAGKDFLVETIKLGKLLRPNHLWGYYLFPDCYNHHYKKPGYNGSCFNVEIKRNDDLSWLWNESTALYPSIYLNTQQSPVAATLYVRNRVREAIRVSKIPDAKSPLPVFAYTRIVFTDQVLKFLSQDELVYTFGETVALGASGIVIWGTLSIMRSMKSCLLLDNYMETILNPYIINVTLAAKMCSQVLCQEQGVCIRKNWNSSDYLHLNPDNFAIQLEKGGKFTVRGKPTLEDLEQFSEKFYCSCYSTLSCKEKADVKDTDAVDVCIADGVCIDAFLKPPMETEEPQIFYNASPSTLSATMFIVSIL
modifications: mature HuPH20 36-499
B4: SPAM1-SILF: C-terminally truncated human PH20, precursor 500 aa (SEQ ID NO:48), mature 465 aa (SEQ ID NO:100) (protein, listed as Homo sapiens)
chain 1: MGVLKFKHIFFRSFVKSSGVSQIVFTFLLIPCCLTLNFRAPPVIPNVPFLWAWNAPSEFCLGKFDEPLDMSLFSFIGSPRINATGQGVTIFYVDRLGYYPYIDSITGVTVNGGIPQKISLQDHLDKAKKDITFYMPVDNLGMAVIDWEEWRPTWARNWKPKDVYKNRSIELVQQQNVQLSLTEATEKAKQEFEKAGKDFLVETIKLGKLLRPNHLWGYYLFPDCYNHHYKKPGYNGSCFNVEIKRNDDLSWLWNESTALYPSIYLNTQQSPVAATLYVRNRVREAIRVSKIPDAKSPLPVFAYTRIVFTDQVLKFLSQDELVYTFGETVALGASGIVIWGTLSIMRSMKSCLLLDNYMETILNPYIINVTLAAKMCSQVLCQEQGVCIRKNWNSSDYLHLNPDNFAIQLEKGGKFTVRGKPTLEDLEQFSEKFYCSCYSTLSCKEKADVKDTDAVDVCIADGVCIDAFLKPPMETEEPQIFYNASPSTLSATMFIVSILF
chain 2: LNFRAPPVIPNVPFLWAWNAPSEFCLGKFDEPLDMSLFSFIGSPRINATGQGVTIFYVDRLGYYPYIDSITGVTVNGGIPQKISLQDHLDKAKKDITFYMPVDNLGMAVIDWEEWRPTWARNWKPKDVYKNRSIELVQQQNVQLSLTEATEKAKQEFEKAGKDFLVETIKLGKLLRPNHLWGYYLFPDCYNHHYKKPGYNGSCFNVEIKRNDDLSWLWNESTALYPSIYLNTQQSPVAATLYVRNRVREAIRVSKIPDAKSPLPVFAYTRIVFTDQVLKFLSQDELVYTFGETVALGASGIVIWGTLSIMRSMKSCLLLDNYMETILNPYIINVTLAAKMCSQVLCQEQGVCIRKNWNSSDYLHLNPDNFAIQLEKGGKFTVRGKPTLEDLEQFSEKFYCSCYSTLSCKEKADVKDTDAVDVCIADGVCIDAFLKPPMETEEPQIFYNASPSTLSATMFIVSILF
modifications: HuPH20 precursor 1-500; Mature HuPH20 36-500
B5: SPAM1-AFLK: C-terminally truncated human PH20, precursor 470 aa (SEQ ID NO:30), mature 435 aa (SEQ ID NO:82) (protein, listed as Homo sapiens)
chain: MGVLKFKHIFFRSFVKSSGVSQIVFTFLLIPCCLTLNFRAPPVIPNVPFLWAWNAPSEFCLGKFDEPLDMSLFSFIGSPRINATGQGVTIFYVDRLGYYPYIDSITGVTVNGGIPQKISLQDHLDKAKKDITFYMPVDNLGMAVIDWEEWRPTWARNWKPKDVYKNRSIELVQQQNVQLSLTEATEKAKQEFEKAGKDFLVETIKLGKLLRPNHLWGYYLFPDCYNHHYKKPGYNGSCFNVEIKRNDDLSWLWNESTALYPSIYLNTQQSPVAATLYVRNRVREAIRVSKIPDAKSPLPVFAYTRIVFTDQVLKFLSQDELVYTFGETVALGASGIVIWGTLSIMRSMKSCLLLDNYMETILNPYIINVTLAAKMCSQVLCQEQGVCIRKNWNSSDYLHLNPDNFAIQLEKGGKFTVRGKPTLEDLEQFSEKFYCSCYSTLSCKEKADVKDTDAVDVCIADGVCIDAFLK
modifications: HuPH20 precursor 1-470

Tested on: CHO-S cells
Assay: Western blot analysis of PH20 expression in media and cells after transient expression
Format: cell-based, Chinese Hamster
Settings: band at approximately 66 kDa
Method: The mutant PH20-HZ24 plasmids generated in Example 1 were transiently […] into CHO—S cells (derived from Chinese Hamster Ovary CHO K1 cells) using GeneJuice® (Novagen) according to the manufacturer's instructions. In short, the CHO—S cells were grown in CD CHO medium supplemented with L-glutamine. Prior to transfection, the CHO—S cells were plated in 6-well plates, with approximately 5×10^5 cells per well, and grown overnight at 37° C. with 5% CO2. The medium was then removed and the CHO—S cells were washed 2 times with 1 mL serum-free medium. GeneJuice® was mixed with serum-free media followed by the addition of 2 μg mutant-HZ24 DNA. After incubating at room temperature for 5-15 minutes, the GeneJuice®/DNA mixture was added dropwise to an individual well containing the washed CHO—S cells. After 4 hours, the medium was replaced with 1 mL CD-CHO medium supplemented with L-glutamine and the cells were incubated for 72 hours at 37° C. with 5% CO2. Following expression, the media and cells were harvested separately.
The mutant PH20-HZ24 plasmids generated in Example 1 were transiently […] into CHO—S cells using GeneJuice® (Novagen) according to the manufacturer's instructions. […]
In this example, following transient expression, as described in Example 2 above, the media and cells were harvested separately and analyzed for PH20 expression and solublility by Western blot analysis. Solubility of the C-terminus truncation mutants was determined by examining whether the expressed protein was present in the growth media or in the cells. […] Cells expressing these mutants were treated with phosphoinositol-phospholipase C (PI-PLC), which cleaves the GPI-anchor allowing the release of soluble protein into the media, and the presence of PH20 in the resulting media and cells was determined by Western blot analysis.
Non-reduced samples were run on a 4-20% Tris-Glycine gel and transferred to PVDF membrane using iBlot (Invitrogen). For the Western blot, rabbit anti-PH20 IgG (0.5 μg/mL) was used as the primary antibody and HRP-conjugated goat anti-rabbit IgG (0.1 ng/mL, Cat#DC03L, EMD) was used as the secondary antibody. Evidence of expression is determined by a band at approximately 66 kDa, corresponding to recombinant human PH20 hyaluronidase.

Molecule | Protein Expression | Protein Expression (listed as IVSI) | Protein Expression (listed as ILFL) | Protein Expression (listed as VSIL) | Protein Expression (listed as SILF)
B1 | WEAK | low expression | – | – | –
B2 | WEAK | – | low expression | – | –
B3 | WEAK | – | – | low expression | –
B4 | WEAK | – | – | – | low expression
B5 | YES | – | – | – | –
